The results are deposited in PubChem (AID1919872; NCATS, 2023).

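OPM2 multiple myeloma cells exposed to each drug for 48 hours, with viability read as ATP-driven luminescence from a CellTiter-Glo reagent.
Each drug ran as a dilution series spanning roughly 0.03 nM to 92 µM, mostly topping out near 45.8 µM.
The number is the fitted AC50, the concentration giving half of the maximal cell-killing effect; a lower value means a more potent drug.
Calls follow NCATS curve classes: actives score 40–100 and inconclusives 1–39, the latter covering weak, poorly fitted or top-dose-only curves.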

Values are in µM.
All entries here are filed as inconclusive.
These entries are mostly ones the record files as inconclusive; other results of the assay are not listed here.
A potency from a partial, single-point or poor curve is only a rough figure.
Some entries filed as inconclusive have a full curve.
The first word of each remark tells which way the curve ran; it can be opposite to the aim of the assay.
Activity scores are not listed here.

With CCN(CC)CCCCNc1ncc2c(n1)N(C)C(=O)N(c1c(Cl)c(OC)cc(OC)c1Cl)C2 the assay gave potency 1.321 µM (cytotoxic, full curve).
With FC(F)(F)c1ccc(Nc2nc3ccc(Oc4ccnc(-c5ncc(C(F)(F)F)[nH]5)c4)cc3[nH]2)cc1 the assay gave potency 18.65 µM (cytotoxic, single point).
With O=NN(CCCl)C(=O)NC1CCCCC1 the assay gave potency 33.17 µM (rising, single point).
With CCS(=O)(=O)N1CC(CC#N)(n2cc(-c3ncnc4[nH]ccc34)cn2)C1 the assay gave potency 0.0012 µM (cytotoxic, full curve, poor fit).
With CCOc1cc2ncc(C#N)c(Nc3ccc(OCc4ccccn4)c(Cl)c3)c2cc1NC(=O)C=CCN(C)C the assay gave potency 11.77 µM (cytotoxic, partial curve, poor fit).
With N=c1nc(N2CCCCC2)cc(N)n1O the assay gave potency 18.65 µM (rising, partial curve, poor fit).
With COc1ccc2cc3[n+](cc2c1OC)CCc1cc2c(cc1-3)OCO2 the assay gave potency 16.63 µM (cytotoxic, partial curve).
With COC(=O)Nc1nc2ccc(S(=O)c3ccccc3)cc2[nH]1 (configuration not stated) the assay gave potency 23.48 µM (cytotoxic, single point).
With Nc1nc(N)c2nc(-c3cccc(O)c3)c(-c3cccc(O)c3)nc2n1 the assay gave potency 23.48 µM (cytotoxic, single point).
With O=C(O)C1(Cc2cccc(Nc3nccs3)n2)CCC(Oc2cccc(Cl)c2F)CC1 (configuration not stated) the assay gave potency 0.0093 µM (cytotoxic, full curve, poor fit).

The last 2 entries again:

structure	potency (µM)	curve
Nc1nc(N)c2nc(-c3cccc(O)c3)c(-c3cccc(O)c3)nc2n1	23.48	cytotoxic, single point
O=C(O)C1(Cc2cccc(Nc3nccs3)n2)CCC(Oc2cccc(Cl)c2F)CC1 (configuration not stated)	0.0093	cytotoxic, full curve, poor fit